# At least one structure is not confirmed: it was looked up by name or label, or the drawing left a doubt.
# Test system: PBMC from HIV-infected patients
# Experiment: Proliferation of PBMC from HIV-infected individuals in vitro, 3H thymidine incorporation
# Assay type: cell-based, human
# Procedure: Peripheral blood mononuclear cells (PBMC) were obtained by standard methods from HIV-infected individuals, and from uninfected individuals. Varying dosages of KBP or VBP were contacted with the PBMC in vitro, and stimulation of proliferation was measured by incorporation of ^3H thymidine (cpm).
structure (smiles),measurement,value
CC(C)[C@H](N)C(=O)N1CCC[C@H]1B(O)O [Val-boroPro],concentrations at which maximum stimulation was observed,10^−12-10^−14

# — patent publication US6503882B2, “Treatment of HIV” (Trustees of Tufts College, priority 1997, dated 2003)
